No constants are given. Whether binding was seen depends on the method and setting. In cells and extracts the contact can be indirect. Some binding calls cover weakened binding; strength is not graded here. Where a sequence is shown, tags or fusion partners need not be part of it.
Target: zebrafish Arnt2-HA (zebrafish) (UniProt Q9DG12)
Test: co-IP

Sequences of proteins named here, by UniProt entry; tags and fusion partners are left off.
UniProt Q9DG12: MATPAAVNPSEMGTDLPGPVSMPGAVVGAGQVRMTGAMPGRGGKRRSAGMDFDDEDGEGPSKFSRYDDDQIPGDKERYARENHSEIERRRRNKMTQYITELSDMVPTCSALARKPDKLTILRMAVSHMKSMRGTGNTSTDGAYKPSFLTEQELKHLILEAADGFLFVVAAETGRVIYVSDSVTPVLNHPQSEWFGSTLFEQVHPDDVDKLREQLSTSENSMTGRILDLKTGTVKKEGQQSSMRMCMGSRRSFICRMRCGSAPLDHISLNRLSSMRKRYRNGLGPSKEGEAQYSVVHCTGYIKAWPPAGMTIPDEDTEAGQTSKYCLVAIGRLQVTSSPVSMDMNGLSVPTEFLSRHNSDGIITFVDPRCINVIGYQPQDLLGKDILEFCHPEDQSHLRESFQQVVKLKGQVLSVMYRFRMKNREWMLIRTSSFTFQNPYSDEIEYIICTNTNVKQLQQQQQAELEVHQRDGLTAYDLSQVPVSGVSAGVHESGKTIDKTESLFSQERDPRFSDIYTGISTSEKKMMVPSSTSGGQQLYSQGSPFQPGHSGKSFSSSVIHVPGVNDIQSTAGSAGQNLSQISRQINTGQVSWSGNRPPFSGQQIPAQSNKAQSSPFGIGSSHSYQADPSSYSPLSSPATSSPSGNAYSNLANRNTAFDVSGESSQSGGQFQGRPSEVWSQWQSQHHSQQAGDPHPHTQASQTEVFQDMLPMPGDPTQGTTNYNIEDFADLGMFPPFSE

B1: zebrafish Npas4l-V5 (protein, UniProt P0DOC7 1-647)
chain: MSCGDSGIRRILRASKRFRSTKGASKARRDQMNSEIRNLRALLPISPEHRLSYLHSMSITCTYIRKSVELRGVCEESTVFSAVNGCVPQDCALQDCALQECVLQECVLQECVLQECVLQALPGFIVAFTTDGKLLYVSENVHEYLGLSMVDVLQSDSFFDMLDRSDVEAVRSVLADASPSGERWVVCRMLVSKAMRLRSSCCPLLVRIRLRDGVCVSLCRPTADRLPARNADFHTHHSADMRLASASSSVLFHLGFSADELIGRSWYELLHPDDLRHAADRHAAILAAATADAEMLIRVQCKDLSWVWMYTHASATAERDAISCSNYMISEAEAVYLQQRLSSSSSSSSSSSSSSASPQCSSVSDSSDAHSAHTLFCTPPYSPTSSQCSDFLSEGYGSLEALVDSAFCSPPYPPLFPNPCCTPTVCPPDTALDPARLCPPDSALVPAALCPPDAALDPTQLCPPGAALDPTLLCPPGAALDPTQLCLPDGALVPAVFCPPNGALVPARLCPSDAALVPAALGRPDAALVPVCRPLQVCECPLDGAVPLEDLSMFPLPQGGGSRLMPPEASPTTHTHFSYDAAQQAGIGTLAMQIHTLICSFDAYSAARHTHSHHTSCWAPEPLLDEGIIDSILRELDSTHTDAHTLI
With B1 as the binder, how does the binding read?
Its binding is “binds”.

— doi:10.1101/2022.01.04.474920
